{"source": "patent US10457662B2", "about": "“Substituted amides for treating and preventing cancer” (The Regents of the University of Michigan, priority 2015, dated 2019)", "system": "MiaPaCa-2 cells", "experiment": "Gene Set Enrichment Analysis (GSEA) of Bru-seq pre-ranked list"}
{"smiles": "O=C(Nc1cccc2cccnc12)c1cnccn1", "note": "[QN523, Pyrazine-2-carboxylic acid quinolin-8-ylamide]", "values": [{"measurement": "NES AMUNDSON_GAMMA_RADIATION_RESPONSE", "setting": "downregulated", "result": "−2.563"}, {"measurement": "NES BLUM_RESPONSE_TO_SALIRASIB_DN", "setting": "downregulated", "result": "−2.38"}, {"measurement": "NES CROONQUIST_NRAS_SIGNALING_DN", "setting": "downregulated", "result": "−2.497"}, {"measurement": "NES DUTERTRE_ESTRADIOL_RESPONSE_24HR_UP", "setting": "downregulated", "result": "−2.5"}, {"measurement": "NES GOBERT_OLIGODENDROCYTE_DIFFERENTIATION_UP", "setting": "downregulated", "result": "−2.35"}, {"measurement": "NES ISHIDA_E2F_TARGETS", "setting": "downregulated", "result": "−2.462"}, {"measurement": "NES KANG_DOXORUBICIN_RESISTANCE_UP", "setting": "downregulated", "result": "−2.424"}, {"measurement": "NES LEE_EARLY_T_LYMPHOCYTE_UP", "setting": "downregulated", "result": "−2.534"}, {"measurement": "NES MORI_LARGE_PRE_BII_LYMPHOCYTE_UP", "setting": "downregulated", "result": "−2.457"}, {"measurement": "NES PID_PLK1_PATHWAY", "setting": "downregulated", "result": "−2.362"}, {"measurement": "NES WHITEFORD_PEDIATRIC_CANCER_MARKERS", "setting": "downregulated", "result": "−2.472"}, {"measurement": "NES ZHAN_MULTIPLE_MYELOMA_PR_UP", "setting": "downregulated", "result": "−2.583"}, {"measurement": "NES ZHOU_CELL_CYCLE_GENES_IN_IR_RESPONSE_24HR", "setting": "downregulated", "result": "−2.366"}, {"measurement": "NES BILD_HRAS_ONCOGENIC_SIGNATURE", "setting": "upregulated", "result": 2.691}, {"measurement": "NES BLUM_RESPONSE_TO_SALIRASIB_UP", "setting": "upregulated", "result": 2.774}, {"measurement": "NES BOQUEST_STEM_CELL_CULTURED_VS_FRESH_UP", "setting": "upregulated", "result": 2.698}, {"measurement": "NES CONCANNON_APOPTOSIS_BY_EPOXOMICIN_UP", "setting": "upregulated", "result": 2.563}, {"measurement": "NES DUTERTRE_ESTRADIOL_RESPONSE_24HR_DN", "setting": "upregulated", "result": 2.697}, {"measurement": "NES ELVIDGE_HYPOXIA_BY_DMOG_UP", "setting": "upregulated", "result": 2.562}, {"measurement": "NES ELVIDGE_HYPOXIA_UP", "setting": "upregulated", "result": 2.562}, {"measurement": "NES GARGALOVIC_RESPONSE_TO_OXIDIZED_PHOSPHOLIPIDS_BLUE_UP", "setting": "upregulated", "result": 2.641}, {"measurement": "NES GARGALOVIC_RESPONSE_TO_OXIDIZED_PHOSPHOLIPIDS_TURQUOISE_UP", "setting": "upregulated", "result": 2.558}, {"measurement": "NES GROSS_HYPOXIA_VIA_ELK3_DN", "setting": "upregulated", "result": 2.653}, {"measurement": "NES HELLER_SILENCED_BY_METHYLATION_DN", "setting": "upregulated", "result": 2.77}, {"measurement": "NES KRIGE_RESPONSE_TO_TOSEDOSTAT_24HR_UP", "setting": "upregulated", "result": 2.68}, {"measurement": "NES NAGASHIMA_NRG1_SIGNALING_UP", "setting": "upregulated", "result": 2.718}, {"measurement": "NES PICCALUGA_ANGIOIMMUNOBLASTIC_LYMPHOMA_DN", "setting": "upregulated", "result": 2.638}, {"measurement": "NES PODAR_RESPONSE_TO_ADAPHOSTIN_UP", "setting": "upregulated", "result": 3.044}, {"measurement": "NES TIEN_INTESTINE_PROBIOTICS_24HR_DN", "setting": "upregulated", "result": 2.827}]}
